# Test results as given in the supplement of paper PMC4683952.
# The other results are listed elsewhere or left out. Rule as the data show it: active = 2 or more and inactive = the rest. Single values are uncertain here, since repeats match poorly.
# System: Lgr5 (MarsCy1-Lgr5-EGFP, U2OS)
# Assay: cell-surface Lgr5 expression (SCi1 fluorescence, background-subtracted) relative to WT DMSO (fold of DMSO control); higher = more Lgr5 at the plasma membrane
# Conditions: U2OS MarsCy1-Lgr5-EGFP stable; treatment time: overnight; library: ActiProbe-5K (TimTec); 25 µM
row,SMILES,cell-surface Lgr5 expression
1,O=S(=O)(c1ccc2oc3ccccc3c2c1)N1CCOCC1,inactive: 1.41
2,COc1ccc(OC)c(C2Nc3cccc4cccc(c34)N2)c1,inactive: 0.745
3,C1(=C2/SC=CS2)/SC=CS1,inactive: 0.992
4,Oc1cc(O)c2sc3nc(-c4ccccc4)cc(-c4ccccc4)c3c2n1,inactive: 1.31
5,Cc1ccc(C2CC(C(F)(F)F)n3nccc3N2)s1 (centres undefined),inactive: 1.12
6,CC(C)(C)S(=O)(=O)c1ccc(N)nc1,inactive: 1.31
7,COc1ccc(NS(=O)(=O)c2ccc(N)cc2)nn1,inactive: 1.34
8,O=C(Nc1cnccn1)c1c(O)c2c(n(C3CC3)c1=O)CCCC2,inactive: 1.35
9,Cc1cc(C)c(O)c(C(CC(C)C)c2cc(C)cc(C)c2O)c1,inactive: 1.33
10,O=C(O)Cn1cnc2sc3c(c2c1=O)CCC3,inactive: 1.22
11,OC(CSCc1cccc(C(F)(F)F)c1)C(O)CSCc1cccc(C(F)(F)F)c1 (centres undefined),inactive: 0.976
12,O=C1CCCc2oc3ccc(O)cc3c21,inactive: 1.37
13,O=[N+]([O-])c1ccc(SC2N=C3CC=CC=C3S2)c([N+](=O)[O-])c1 (centres undefined),active: 2.25
14,COC(=O)C1C(=O)Oc2ccc3ccccc3c2C1C1CCOC1=O (centres undefined),inactive: 1.26
15,c1ccc2c(c1)-c1ccccc1C2Sc1nc2ccccc2s1,inactive: 1.36
16,O=C(Nc1nnc(C2CCCCC2)s1)C1CC1,inactive: 1.43
17,COCc1n[nH]c2c1C(c1cccs1)C(C#N)=C(N)O2 (centres undefined),inactive: 1.32
18,N#CC1=C(N)SC(N)=C(C#N)C1c1ccco1,inactive: 1.17
19,CC(=O)Nc1nnc(CC(C)(C)C)s1,inactive: 1.32
20,C=CCN(CC=C)C(=O)c1cccs1,inactive: 1.09
21,O=c1nc2sccn2c2ccc([N+](=O)[O-])cc12,inactive: 0.926
22,O=C(NCCN1CCOCC1)N1CCOCC1,inactive: 1.06
23,Oc1nc2cc3ccccc3cc2nc1C(F)(F)F,inactive: 1.02
24,Brc1ccc2c(c1)-c1cc(Br)ccc1C2,inactive: 1.51
25,O=c1[nH]c2ccc(/N=C\c3ccc4c(c3)OCO4)cc2[nH]1,inactive: 1.03
26,CC(=O)OCC1OC(n2ccc(O)nc2=S)C(OC(C)=O)C1OC(C)=O (centres undefined),inactive: 1.23
27,N#Cc1ccc2c(c1)COC2c1ccc(F)cc1 (centres undefined),inactive: 1.27

# Quoted from above, 13 compounds:
row,SMILES,cell-surface Lgr5 expression
5,Cc1ccc(C2CC(C(F)(F)F)n3nccc3N2)s1 (centres undefined),inactive: 1.12
6,CC(C)(C)S(=O)(=O)c1ccc(N)nc1,inactive: 1.31
7,COc1ccc(NS(=O)(=O)c2ccc(N)cc2)nn1,inactive: 1.34
8,O=C(Nc1cnccn1)c1c(O)c2c(n(C3CC3)c1=O)CCCC2,inactive: 1.35
9,Cc1cc(C)c(O)c(C(CC(C)C)c2cc(C)cc(C)c2O)c1,inactive: 1.33
10,O=C(O)Cn1cnc2sc3c(c2c1=O)CCC3,inactive: 1.22
11,OC(CSCc1cccc(C(F)(F)F)c1)C(O)CSCc1cccc(C(F)(F)F)c1 (centres undefined),inactive: 0.976
12,O=C1CCCc2oc3ccc(O)cc3c21,inactive: 1.37
13,O=[N+]([O-])c1ccc(SC2N=C3CC=CC=C3S2)c([N+](=O)[O-])c1 (centres undefined),active: 2.25
14,COC(=O)C1C(=O)Oc2ccc3ccccc3c2C1C1CCOC1=O (centres undefined),inactive: 1.26
15,c1ccc2c(c1)-c1ccccc1C2Sc1nc2ccccc2s1,inactive: 1.36
16,O=C(Nc1nnc(C2CCCCC2)s1)C1CC1,inactive: 1.43
17,COCc1n[nH]c2c1C(c1cccs1)C(C#N)=C(N)O2 (centres undefined),inactive: 1.32

# Following part:

row,SMILES,cell-surface Lgr5 expression
1,O=c1[nH]c2cncc(Br)c2[nH]1,inactive: 1.08
2,O=C(NCCCN1CCOCC1)C1CC2CCC1C2 (centres undefined),inactive: 1.38
3,Nc1nnc(SCc2csc(C=O)c2)s1,inactive: 1.08
4,O=[N+]([O-])c1ccccc1-n1ccnc1,inactive: 1.41
5,O=C1C(Nc2ccc(Br)cn2)=C([n+]2ccccc2)C(=O)N1c1ccccc1.[Cl-],inactive: 1.29
6,O=C(O)C1CCCN1S(=O)(=O)c1cccs1 (centres undefined),inactive: 1.44
7,COc1ccc(C2=Nn3c(nnc3-c3ccccc3OC)SC2)cc1OC,inactive: 1.26
8,Cn1cc(S(=O)(=O)N2CCN(C(=O)C3CCN(S(C)(=O)=O)CC3)CC2)cn1,inactive: 1.21
9,O=c1[nH]cc(CO)c(=O)[nH]1,inactive: 1.33
10,CC1(C)OCC(C23OC(C)(C)C2(C2COC(C)(C)O2)O3)O1 (centres undefined),inactive: 1.16
11,Cc1sc2ncn(C(C)C(=O)OC3CCCCC3)c(=O)c2c1C (centres undefined),inactive: 1.21
12,CCCCCCCC1CC(C(C)(C)C)CC/C1=N\NC(N)=O (centres undefined),inactive: 1.24
13,NC1=Nc2nc3ccccc3n2C(c2c[nH]c3ccc(F)cc23)N1 (centres undefined),inactive: 1.34
14,O=c1cnn(C2OC(CO)C(O)C2O)c(=S)[nH]1 (centres undefined),inactive: 1.17
15,CCCCCCCSc1nc2c(c(=O)[nH]c(=O)n2C)n1CCCCCCC,inactive: 1.15
16,CC1=C(C(=O)OC(C)C)C(C2CC=CCC2)NC(=O)N1 (centres undefined),inactive: 1.2
17,CC(C)(C)c1cc(S)cc(C(C)(C)C)c1O,inactive: 1.24
18,S=C(c1ccco1)N1CCOCC1,inactive: 1.08
19,c1ccc2c(c1)OC1c3ccccc3OC3c4ccccc4OC2N31 (centres undefined),inactive: 0.992
20,O=c1c2c3c(sc2ncn1Cc1ccon1)CCC3,inactive: 1.11
21,CCCc1[nH]nc2c1C(c1ccc(Br)s1)C(C#N)=C(N)O2 (centres undefined),inactive: 1.85
22,CC(C1=C(O)CC(C)(C)CC1=O)C1C(=O)CC(C)(C)CC1=O (centres undefined),inactive: 1.39
23,Nc1nc(Cl)cc(Oc2ccc(Cl)cc2)n1,inactive: 0.924
24,Nc1ccc2c(c1)COC2=O,inactive: 1.34
25,Nc1nc(N)c(-c2c(-c3ccc(Cl)s3)[nH]c3nc(N)[nH]c(=O)c23)c(=O)[nH]1,inactive: 1.08
26,CC1Oc2cc([N+](=O)[O-])cc3c2C1=Cc1ccccc1O3 (centres undefined),inactive: 0.766
27,O=S(=O)(c1ccc2c(c1)Cc1cc(S(=O)(=O)N3CCOCC3)ccc1-2)N1CCOCC1,inactive: 1.21
